In article PMC9916828:
No constants are given. Whether binding was seen depends on the method and setting. Binding seen in cells or lysates may run through a third protein. Some entries that bind do so weakly or less than the wild type.

Protein sequences, listed by entry. Tags and fused reporters are not part of them. Residues count along the entry.
UniProt P16858: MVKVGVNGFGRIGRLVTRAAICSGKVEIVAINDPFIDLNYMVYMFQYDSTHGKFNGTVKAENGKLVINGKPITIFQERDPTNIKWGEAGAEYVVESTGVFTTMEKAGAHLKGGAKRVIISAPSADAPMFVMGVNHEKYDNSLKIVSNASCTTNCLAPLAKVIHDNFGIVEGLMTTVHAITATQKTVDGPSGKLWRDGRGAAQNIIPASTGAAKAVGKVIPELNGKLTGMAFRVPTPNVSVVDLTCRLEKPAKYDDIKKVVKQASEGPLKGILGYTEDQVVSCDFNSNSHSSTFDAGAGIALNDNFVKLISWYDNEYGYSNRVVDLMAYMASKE
UniProt P70168: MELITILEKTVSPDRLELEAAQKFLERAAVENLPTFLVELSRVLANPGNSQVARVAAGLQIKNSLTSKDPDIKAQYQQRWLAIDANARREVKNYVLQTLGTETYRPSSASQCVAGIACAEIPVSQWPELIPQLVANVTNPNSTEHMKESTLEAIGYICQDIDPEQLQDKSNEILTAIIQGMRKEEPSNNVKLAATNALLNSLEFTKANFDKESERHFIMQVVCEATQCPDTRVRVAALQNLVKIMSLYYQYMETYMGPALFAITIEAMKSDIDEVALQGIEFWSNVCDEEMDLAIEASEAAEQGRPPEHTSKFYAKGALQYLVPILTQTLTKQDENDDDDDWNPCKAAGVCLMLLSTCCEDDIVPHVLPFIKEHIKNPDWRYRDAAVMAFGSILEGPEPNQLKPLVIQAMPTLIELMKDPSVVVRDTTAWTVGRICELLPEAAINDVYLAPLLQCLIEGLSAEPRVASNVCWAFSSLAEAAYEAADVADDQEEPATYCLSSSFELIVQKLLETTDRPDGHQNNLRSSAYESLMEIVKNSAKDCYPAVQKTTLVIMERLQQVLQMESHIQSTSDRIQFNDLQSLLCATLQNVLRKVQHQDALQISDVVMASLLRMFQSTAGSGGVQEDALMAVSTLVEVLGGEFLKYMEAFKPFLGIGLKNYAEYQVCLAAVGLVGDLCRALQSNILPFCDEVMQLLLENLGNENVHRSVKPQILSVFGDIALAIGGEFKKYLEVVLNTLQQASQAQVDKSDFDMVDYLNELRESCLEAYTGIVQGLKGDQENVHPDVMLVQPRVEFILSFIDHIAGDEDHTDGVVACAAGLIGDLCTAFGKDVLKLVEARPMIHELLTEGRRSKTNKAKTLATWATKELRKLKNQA
UniProt P46096: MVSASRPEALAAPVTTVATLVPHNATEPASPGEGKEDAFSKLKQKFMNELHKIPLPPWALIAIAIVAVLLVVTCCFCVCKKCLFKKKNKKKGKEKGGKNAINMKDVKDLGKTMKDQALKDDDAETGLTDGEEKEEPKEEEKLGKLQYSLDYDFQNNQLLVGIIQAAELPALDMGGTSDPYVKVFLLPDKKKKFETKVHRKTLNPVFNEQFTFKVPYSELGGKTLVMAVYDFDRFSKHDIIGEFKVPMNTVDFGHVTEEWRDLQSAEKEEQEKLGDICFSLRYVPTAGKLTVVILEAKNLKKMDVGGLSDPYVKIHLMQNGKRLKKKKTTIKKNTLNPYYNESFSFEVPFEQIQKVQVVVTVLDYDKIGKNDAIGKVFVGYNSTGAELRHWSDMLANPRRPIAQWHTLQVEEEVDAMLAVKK
UniProt P43274: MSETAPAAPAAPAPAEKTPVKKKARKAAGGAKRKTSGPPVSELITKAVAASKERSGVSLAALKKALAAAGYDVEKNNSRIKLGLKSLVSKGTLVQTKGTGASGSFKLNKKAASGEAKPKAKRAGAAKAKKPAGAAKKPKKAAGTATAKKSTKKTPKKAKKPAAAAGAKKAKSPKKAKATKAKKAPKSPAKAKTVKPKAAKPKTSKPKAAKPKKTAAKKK
UniProt P11627, residues 20-1260: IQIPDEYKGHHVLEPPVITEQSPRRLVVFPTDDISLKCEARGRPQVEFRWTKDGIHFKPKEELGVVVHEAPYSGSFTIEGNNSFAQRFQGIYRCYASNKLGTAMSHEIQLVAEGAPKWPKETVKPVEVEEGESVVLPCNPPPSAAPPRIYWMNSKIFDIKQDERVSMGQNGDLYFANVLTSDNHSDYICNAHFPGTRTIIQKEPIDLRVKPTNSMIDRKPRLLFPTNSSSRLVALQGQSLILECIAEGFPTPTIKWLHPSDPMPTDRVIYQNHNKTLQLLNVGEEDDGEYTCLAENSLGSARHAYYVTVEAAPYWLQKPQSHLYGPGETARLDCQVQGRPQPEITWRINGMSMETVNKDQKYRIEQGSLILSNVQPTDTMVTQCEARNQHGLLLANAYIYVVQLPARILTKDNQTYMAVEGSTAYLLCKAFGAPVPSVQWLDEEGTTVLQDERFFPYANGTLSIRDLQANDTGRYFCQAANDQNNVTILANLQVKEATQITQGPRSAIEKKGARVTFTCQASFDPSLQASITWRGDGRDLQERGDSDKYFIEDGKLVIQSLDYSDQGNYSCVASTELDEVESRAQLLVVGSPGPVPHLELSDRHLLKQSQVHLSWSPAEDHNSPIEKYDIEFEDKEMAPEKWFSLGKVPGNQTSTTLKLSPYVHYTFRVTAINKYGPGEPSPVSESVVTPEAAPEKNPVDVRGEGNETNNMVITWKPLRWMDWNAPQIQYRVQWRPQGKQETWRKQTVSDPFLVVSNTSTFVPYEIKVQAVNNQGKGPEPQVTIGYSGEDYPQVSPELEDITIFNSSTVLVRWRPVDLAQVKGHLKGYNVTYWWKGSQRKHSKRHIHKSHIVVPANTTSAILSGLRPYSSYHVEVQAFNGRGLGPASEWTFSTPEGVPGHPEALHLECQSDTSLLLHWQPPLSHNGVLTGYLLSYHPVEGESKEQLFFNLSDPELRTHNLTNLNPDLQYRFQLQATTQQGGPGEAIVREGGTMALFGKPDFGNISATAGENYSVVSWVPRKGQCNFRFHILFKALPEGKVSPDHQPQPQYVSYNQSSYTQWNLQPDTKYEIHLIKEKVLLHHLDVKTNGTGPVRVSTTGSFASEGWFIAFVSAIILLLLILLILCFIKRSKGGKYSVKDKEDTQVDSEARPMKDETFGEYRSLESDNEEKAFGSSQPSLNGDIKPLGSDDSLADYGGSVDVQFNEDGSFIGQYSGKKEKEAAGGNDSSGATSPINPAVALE

Tests used:
Assay in all cases: proximity ligation; fixed, permeabilised cultured mouse cortical (and cerebellar) neurons from wild-type or L1 mutant mice; mouse L1 antibody C-2 with goat or rabbit antibodies against the partner, or rabbit L1 antibody ab12399 with mouse antibodies; cells treated with vehicle, 1 µM aprotinin, 50 µg/mL L1 antibody 557 or siRNAs
[1] = target: T1, splicing factor proline/glutamine-rich (SFPQ), endogenous mouse (mouse (endogenous in cultured cortical neurons)) (UniProt Q8VIJ6)
T1 sequence: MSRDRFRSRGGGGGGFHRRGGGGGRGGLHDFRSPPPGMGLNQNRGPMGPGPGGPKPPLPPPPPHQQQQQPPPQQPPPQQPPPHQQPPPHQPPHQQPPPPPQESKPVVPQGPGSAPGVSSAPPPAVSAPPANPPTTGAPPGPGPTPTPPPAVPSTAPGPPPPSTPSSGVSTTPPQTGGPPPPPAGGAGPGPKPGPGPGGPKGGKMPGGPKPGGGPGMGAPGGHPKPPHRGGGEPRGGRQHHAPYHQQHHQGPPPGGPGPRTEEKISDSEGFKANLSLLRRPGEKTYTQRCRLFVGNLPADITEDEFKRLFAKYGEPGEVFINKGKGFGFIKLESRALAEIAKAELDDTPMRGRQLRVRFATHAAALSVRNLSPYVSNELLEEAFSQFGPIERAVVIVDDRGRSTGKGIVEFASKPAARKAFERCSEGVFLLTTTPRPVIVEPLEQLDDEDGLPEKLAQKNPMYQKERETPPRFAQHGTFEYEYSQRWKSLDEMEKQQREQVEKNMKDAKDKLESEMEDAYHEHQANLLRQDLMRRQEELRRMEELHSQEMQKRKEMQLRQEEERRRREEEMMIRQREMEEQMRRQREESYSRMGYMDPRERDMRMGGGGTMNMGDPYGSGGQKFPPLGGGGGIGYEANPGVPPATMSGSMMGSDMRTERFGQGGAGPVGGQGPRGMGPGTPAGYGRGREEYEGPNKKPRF

[2] = target: T2, paraspeckle component 1 (PSPC1), endogenous mouse (mouse (endogenous in cultured cortical neurons)) (UniProt Q8R326)
T2 sequence: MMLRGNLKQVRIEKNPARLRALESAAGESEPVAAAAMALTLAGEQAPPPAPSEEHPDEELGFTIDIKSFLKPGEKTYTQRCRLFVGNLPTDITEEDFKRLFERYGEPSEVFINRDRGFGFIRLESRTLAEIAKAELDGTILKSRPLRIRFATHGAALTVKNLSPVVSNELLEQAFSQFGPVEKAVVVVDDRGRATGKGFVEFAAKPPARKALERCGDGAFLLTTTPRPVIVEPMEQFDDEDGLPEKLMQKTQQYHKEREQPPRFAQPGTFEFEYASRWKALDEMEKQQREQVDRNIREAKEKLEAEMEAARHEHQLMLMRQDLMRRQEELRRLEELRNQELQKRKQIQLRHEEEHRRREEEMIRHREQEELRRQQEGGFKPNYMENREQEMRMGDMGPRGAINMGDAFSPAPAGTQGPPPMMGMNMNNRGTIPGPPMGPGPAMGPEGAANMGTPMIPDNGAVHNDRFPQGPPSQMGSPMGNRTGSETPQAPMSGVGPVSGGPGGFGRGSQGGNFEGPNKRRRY

[3] = target: glyceraldehyde 3-phosphate dehydrogenase (GAPDH), endogenous mouse (mouse (endogenous in cultured cortical neurons)) (UniProt P16858)
[4] = target: importin β1 (impβ1), endogenous mouse (mouse (endogenous in cultured cortical neurons)) (UniProt P70168)
[5] = target: synaptotagmin 1 (SYT1), endogenous mouse (mouse (endogenous in cultured cortical neurons)) (UniProt P46096)
[6] = target: histone H1.4 (HistH1e), endogenous mouse (mouse (endogenous in cultured cortical neurons)) (UniProt P43274)

binding [1]: binds
binding [2]: binds
binding [3]: binds
binding [4]: binds
binding [5]: binds
binding [6]: binds
Substance: cell adhesion molecule L1, endogenous in wild-type mouse neurons (from UniProt P11627 20-1260)
